Laboratory results taken from PMC12005277.
These are yes or no findings as the source states them, for the method shown. In cells and extracts the contact can be indirect. Binding calls can cover weak binding; strength is not graded here.

The chains behind the UniProt entries cited, without tags or fusion partners. Where a name states a change or a piece, a line headed by the entry shows the natural chain unless it says otherwise.
UniProt Q9UMX0: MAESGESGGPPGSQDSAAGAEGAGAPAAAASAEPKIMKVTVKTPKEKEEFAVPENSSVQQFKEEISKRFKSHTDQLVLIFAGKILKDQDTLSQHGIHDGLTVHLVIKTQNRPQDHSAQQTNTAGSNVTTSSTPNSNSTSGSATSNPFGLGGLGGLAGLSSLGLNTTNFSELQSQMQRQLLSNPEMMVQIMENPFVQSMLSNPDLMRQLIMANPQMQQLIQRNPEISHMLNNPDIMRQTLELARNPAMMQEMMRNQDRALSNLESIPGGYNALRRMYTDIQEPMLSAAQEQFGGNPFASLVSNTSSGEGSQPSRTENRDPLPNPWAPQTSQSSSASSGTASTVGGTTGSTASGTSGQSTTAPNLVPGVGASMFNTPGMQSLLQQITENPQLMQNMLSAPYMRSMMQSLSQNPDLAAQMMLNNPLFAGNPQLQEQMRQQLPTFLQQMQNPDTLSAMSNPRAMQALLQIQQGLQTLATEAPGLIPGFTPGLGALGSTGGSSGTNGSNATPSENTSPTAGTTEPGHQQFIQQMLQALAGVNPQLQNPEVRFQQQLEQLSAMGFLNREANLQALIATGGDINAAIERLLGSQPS
UniProt P05496: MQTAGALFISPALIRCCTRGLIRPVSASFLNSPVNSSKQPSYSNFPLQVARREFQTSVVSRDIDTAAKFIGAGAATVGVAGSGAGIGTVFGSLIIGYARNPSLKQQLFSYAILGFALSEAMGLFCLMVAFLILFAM

Columns and labels:
[1] = target: Myc-tagged UBQLN1 (WT) (human) (UniProt Q9UMX0); assay: co-IP; anti-Myc agarose for Myc-UBQLN1 or Myc-RNF126; HEK293T cells (wild type or BAG6 knockout) treated with 20 μM MG132 for 2 h; 50 mM Tris-HCl, 150 mM NaCl, 2 mM MgCl2, 0.05% digitonin, 4 °C, 2 h
[2] = target: ATP5G1-3xFLAG (ATP synthase F(0) complex subunit C1, precursor) (human) (UniProt P05496); assay: co-IP; anti-FLAG agarose for FLAG-tagged ATP5G1; HEK293T lysates (Figure 3E: BAG6 knockout cells, with or without 20 μM MG132 for 2 h); 50 mM Tris-HCl, 150 mM NaCl, 2 mM MgCl2, 0.05% digitonin, 4 °C, 2 h

binding [1]	binding [2]	Substance
binds	–	ATP5G1-3xFLAG (ATP synthase F(0) complex subunit C1, precursor) (from UniProt P05496)
–	binds	ubiquilin 1 (UBQLN1) in HEK293T lysate (from UniProt Q9UMX0 1-589)
